This list was built around the results that the source calls inconclusive (neither active nor inactive); the mix of calls is not that of the screen. Potencies beside an inconclusive call are fits to weak or partial responses and may not hold up. Activity calls are given as the source filed them. The call rests on the fitted dose curve; in most records, active means well fitted cell-killing curve with a large enough effect; inconclusive means small, poorly fitted or top-dose-only effect; inactive means flat fitted curve, though single readings scatter.
Experiment: DAPI mCherry counterscreen qHTS for Zika virus inhibitors; further: nearly all actives have a fitted effect of over 55% in size
Conditions: Vero cells, DAPI nuclear count cytotoxicity, imaging 48-72 h, infected with Zika reporter virus, MOI 1; activity change, negative = cell loss: at 32.6 µM (top of the series) unless noted
How it was run: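 Imaging read-out after fixation and Hoechst nuclear staining: percent infection from mCherry-positive cells (above 3 SD of negative controls) and nuclear counts. Setup: Vero cells pre-plated overnight, compound added, infected with ZIKV-mCherry (MOI 1), 48-72 hrs, 37 degrees C.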
For `O=C(O)Cn1c(C(=O)Nc2nc(-c3ccccc3Cl)cs2)cc2ccccc21`, the Potency was inconclusive: 0.355 µM [cytotoxic, full curve, poor fit]. With `Clc1ccc(-c2nn3c(COc4cc(Cl)c(OCc5nnc6sc(-c7ccc(Cl)cc7)nn56)cc4Cl)nnc3s2)cc1` the Potency was inconclusive: 14.1 µM [cytotoxic, full curve, poor fit]. With `O=C(O)c1ccc(CCCc2ccc(OCCc3ccc(F)cc3)cc2)o1` the Potency was active: 31.6 µM. In the case of `Cc1ccc(-c2cc(C(F)(F)F)c(C#N)c(SCC(=O)O)n2)cc1`, the Potency is reported as inconclusive: 22.4 µM [cytotoxic, partial curve]. For `O=C(OC1Cc2c(O)cc(O)cc2OC1c1cc(O)c(O)c(O)c1)c1cc(O)c(O)c(O)c1` (stereo not given), the Potency was inconclusive: 35.5 µM [cytotoxic, partial curve, poor fit]. With `O=C(Nc1ccc(C(=O)OCc2cc(=O)n3nc(C4CC4)sc3n2)cc1)c1cccc(Cl)c1` the Potency was inconclusive: 8.91 µM [cytotoxic, full curve]. For `CCc1c(-c2ccccc2)c(-c2ccccc2)nn1-c1ccccc1-c1cccc(OCC(=O)O)c1`, the Potency was inconclusive: 35.5 µM [cytotoxic, partial curve]. With `O=c1cc(-c2ccccc2)oc2cc(O)c(O)c(O)c12` the “activity change, negative = cell loss” value was inactive: -18.4%. With `CCOc1ccc(S(=O)(=O)Nc2cc3c(C(=O)OCc4ccccc4)c(C)oc3c3ccccc23)cc1` the Potency was inconclusive: 6.31 µM [cytotoxic, full curve]. For `O=C(/C=C/c1c(C(=O)O)[nH]c2cc(Cl)cc(Cl)c12)Nc1ccccc1`, the Potency was inconclusive: 35.5 µM [cytotoxic, partial curve, poor fit]. For `CCCCC(CC)CN=C(N)NC(N)=NCCCCCCN=C(N)NC(N)=NCC(CC)CCCC` (stereo not given), the Potency was inconclusive: 1.12 µM [cytotoxic, full curve, poor fit]. With `O=C(O)c1cc(O)c2cccc(O)c2c1O[C@@H]1O[C@H](CO)[C@@H](O)[C@H](O)[C@H]1O` the “activity change, negative = cell loss” value was inactive: -6.37% [at 24.2 µM]. With `C=CC/C=C\C/C=C\CCCCCCCc1cccc(O)c1C(=O)O` the Potency was inconclusive: 12.6 µM [cytotoxic, partial curve]. For `O=C(O)c1ccc(N2C(=O)/C(=C/c3ccc(-c4ccc([N+](=O)[O-])cc4)o3)C=C2c2ccccc2)cc1`, the Potency was inconclusive: 12.6 µM [cytotoxic, partial curve]. With `Cc1noc(-c2ccc(-c3ccc(CC(=O)O)cc3)cc2)c1NC(=O)O[C@H](C)c1ccccc1Cl` the Potency was inconclusive: 20 µM [cytotoxic, partial curve]. For `COc1cc(/C=C(\C#N)C(=O)Nc2nnc(C(F)(F)F)s2)ccc1OCc1ccc(C(F)(F)F)cc1C(F)(F)F`, the Potency was active: 7.08 µM. With `Cc1oc2c(cc(NS(=O)(=O)c3ccc(Br)cc3)c3ccccc32)c1C(=O)OCc1ccccc1` the “activity change, negative = cell loss” value was inactive: -18.7%. With `O=C(OCc1cc(=O)n2nc(C3CC3)sc2n1)c1ccc(NC(=O)c2ccccc2Cl)cc1` the “activity change, negative = cell loss” value was inactive: -18.5%. For `COc1c(C)c2c(c(O)c1C/C=C(\C)CCC(=O)O)C(=O)OC2`, the Potency was inconclusive: 3.55 µM [cytotoxic, full curve, poor fit]. In the case of `O=C(O)/C=C/c1ccc(-c2ccc(O)c(C34CC5CC(CC(C5)C3)C4)c2)cc1`, the Potency is reported as inconclusive: 6.31 µM [cytotoxic, full curve, poor fit]. With `C=C1c2cccc(O)c2C(O)=C2C(=O)[C@]3(O)C(O)=C(C(N)=O)C(=O)[C@@H](N(C)C)[C@@H]3[C@@H](O)[C@H]12` the Potency was inconclusive: 35.5 µM [cytotoxic, partial curve, poor fit]. For `Cc1ccc2nc(-c3ccc(N=Nc4cc(S(=O)(=O)O)c5ccccc5c4O)cc3)sc2c1S(=O)(=O)O`, the Potency was inconclusive: 31.6 µM [cytotoxic, partial curve, poor fit]. With `Cc1ccc2[nH]c(=O)c(C3=NN(C(=O)CCC(=O)O)C(c4ccc(Br)cc4)C3)c(-c3ccccc3)c2c1` (stereo not given) the Potency was inconclusive: 14.1 µM [cytotoxic, partial curve, poor fit]. In the case of `Cc1ccc(NC(=O)c2ccc3c(O)c(S(=O)(=O)c4ccccc4)c(=O)[nH]c3c2)cc1Cl`, the “activity change, negative = cell loss” value is reported as inactive: -17%. With `Cc1ccc2nc(NS(=O)(=O)c3ccc(Cl)cc3)c(Nc3ccc(C(=O)O)cc3)nc2c1` the Potency was inconclusive: 35.5 µM [cytotoxic, single point].

From PubChem BioAssay AID1347156 (National Center for Advancing Translational Sciences (NCATS), 2019)
On the % scale 0 is the no-effect control and ±100 the full control effect; potency means the concentration at half of the fitted maximal effect.
